{"source": "paper PMC6844273", "about": "“Platinum(IV) dihydroxido diazido N-(heterocyclic)imine complexes are potently photocytotoxic when irradiated with visible light” (Chemical Science, 2019)", "data": [{"system": "5′-GMP", "assay": "5′-GMP binding upon blue light irradiation (1H NMR)", "settings": "420 nm, 2 mM complex (1 mM for 29) in PBS/D2O pH* 7.4, 2 mol eq. 5′-GMP, error 5–10 %", "units": {"% Binding of 5′-GMP": "%"}, "values": [{"substance": "trans,trans,trans-[Pt(N3)2(OH)2(1-methylimidazole)2] [Complex 32]", "% Binding of 5′-GMP": 48}, {"substance": "trans,trans,trans-[Pt(N3)2(OH)2(3-picoline)2] [Complex 23]", "% Binding of 5′-GMP": 68}, {"substance": "trans,trans,trans-[Pt(N3)2(OH)2(4-picoline)2] [Complex 26]", "% Binding of 5′-GMP": 64}, {"substance": "trans,trans,trans-[Pt(N3)2(OH)2(thiazole)2] [Complex 29]", "% Binding of 5′-GMP": 80}]}]}
